PubChem BioAssay AID686937 – Drosophila RNAi Screening Center, 2013

- Aim: 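Genes in the fly needed for secretion of protein constitutively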 (primary screen)
- Cells: Drosophila S2 cells expressing secreted horseradish peroxidase
- Reagents: long dsRNA against Drosophila genes
- Time to read-out: about 5.5 days (5 days dsRNA, then 12 h reporter induction)
- Treatment: reporter expression induced after 5 days of dsRNA, read 12 h later; inducer not stated
- Read-out: 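Chemiluminescent measurement of peroxidase in the medium 12 h after reporter induction, following 5 days of dsRNA, given as a z-score per plate; higher means more secretion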
- Reading the numbers: z-score: higher = more reporter secreted into medium
The deposit covers about 23,000 reagents; this is a random part of those that have a named target and a result. 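Reduced-secretion tags in replicate 1 do not always agree with the z-scores; no criterion for assigning the tags was given.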 The numbers tell different reagents against one gene apart. Further read-outs or replicates are left out here. No sequences are given here. Not given: the amount of reagent.

For Slmap (Sarcolemma associated protein), how do the results read?
z-score, replicate 1: -1.19

How did the screen score Naam (Nicotinamide amidase)?
z-score, replicate 1: 0.33

For CG9444, what does the deposit list?
z-score, replicate 1: 0.33

How did the screen score Rbm13 (RNA-binding motif protein 13)?
z-score, replicate 1: -0.48

What is on record for CG13712?
z-score, replicate 1: 0.6

For Daxx (Daxx-like protein), what was measured?
z-score, replicate 1: 0.21

How did the screen score CG7299?
z-score, replicate 1: 0.48

What is on record for RpL14 (Ribosomal protein L14)?
z-score, replicate 1: -3.51

For por (porcupine), what was measured?
z-score, replicate 1: 0.27

For aspr (asperous) #1, how do the results read?
z-score, replicate 1: 0.41

Which result is listed for aspr (asperous) #2?
z-score, replicate 1: 0.3

How did the screen score Wnt4 (Wnt oncogene analog 4) #1?
z-score, replicate 1: 0.33

What did the screen give for Wnt4 (Wnt oncogene analog 4) #2?
z-score, replicate 1: 0.21

How did the screen score Nos (Nitric oxide synthase)?
z-score, replicate 1: 0.4

With vls (valois), what was measured?
z-score, replicate 1: 0.46

For CG31730, how do the results read?
z-score, replicate 1: 0.51

Which result is listed for CG13893?
z-score, replicate 1: 0.17

For NFAT (NFAT nuclear factor) #1, what was measured?
z-score, replicate 1: -1.04

Which result is listed for NFAT (NFAT nuclear factor) #2?
z-score, replicate 1: 0.15

Which result is listed for CG10035?
z-score, replicate 1: 0.25

What did the screen give for CG11145?
z-score, replicate 1: 0.35

What is on record for Su(P) (Suppressor of ref(2)P sterility)?
z-score, replicate 1: 0.38

For sNPF-R (short neuropeptide F receptor), what does the deposit list?
z-score, replicate 1: 0.36

With sax (saxophone), how do the results read?
z-score, replicate 1: 0.14

Which result is listed for e (ebony)?
z-score, replicate 1: 0.1

What did the screen give for CG6015?
z-score, replicate 1: -4.88

How did the screen score CG15602?
z-score, replicate 1: 0.58

For CG30156, what does the deposit list?
z-score, replicate 1: -0.21

With U2af50 (U2 small nuclear riboprotein auxiliary factor 50) #1, how do the results read?
z-score, replicate 1: -2.19

What did the screen give for U2af50 (U2 small nuclear riboprotein auxiliary factor 50) #2?
z-score, replicate 1: 1.49

With GstE7 (Glutathione S transferase E7), what does the deposit list?
z-score, replicate 1: 0.1

For Strica (Ser/Thr-rich caspase), what was measured?
z-score, replicate 1: 0.41

Which result is listed for E(spl)m7-HLH (Enhancer of split m7, helix-loop-helix)?
z-score, replicate 1: 0.25

Which result is listed for Taf9 (TBP-associated factor 9)?
z-score, replicate 1: 0.25

For CG8891, what was measured?
z-score, replicate 1: 0.18

Which result is listed for CG14759?
z-score, replicate 1: 0.38

With Muc68D (Mucin 68D), what does the deposit list?
z-score, replicate 1: 0.09

How did the screen score Prosalpha3 (Proteasome alpha3 subunit)?
z-score, replicate 1: -1.92

For CG31288, what was measured?
z-score, replicate 1: 0.19

With Ance-5, how do the results read?
z-score, replicate 1: 0.22

Sorted by “z-score, replicate 1” (descending): 5 of the entries above.
CG7299 — z-score, replicate 1: 0.48
aspr (asperous) #1 — z-score, replicate 1: 0.41
aspr (asperous) #2 — z-score, replicate 1: 0.3
por (porcupine) — z-score, replicate 1: 0.27
RpL14 (Ribosomal protein L14) — z-score, replicate 1: -3.51
